Laboratory results published in the supplement of paper PMC10849652.
This is one part of the list.

By UniProt entry, the sequences of proteins in these tests, tags left out. Where a name states a change or a piece, a line headed by the entry shows the natural chain unless it says otherwise.
UniProt P04844: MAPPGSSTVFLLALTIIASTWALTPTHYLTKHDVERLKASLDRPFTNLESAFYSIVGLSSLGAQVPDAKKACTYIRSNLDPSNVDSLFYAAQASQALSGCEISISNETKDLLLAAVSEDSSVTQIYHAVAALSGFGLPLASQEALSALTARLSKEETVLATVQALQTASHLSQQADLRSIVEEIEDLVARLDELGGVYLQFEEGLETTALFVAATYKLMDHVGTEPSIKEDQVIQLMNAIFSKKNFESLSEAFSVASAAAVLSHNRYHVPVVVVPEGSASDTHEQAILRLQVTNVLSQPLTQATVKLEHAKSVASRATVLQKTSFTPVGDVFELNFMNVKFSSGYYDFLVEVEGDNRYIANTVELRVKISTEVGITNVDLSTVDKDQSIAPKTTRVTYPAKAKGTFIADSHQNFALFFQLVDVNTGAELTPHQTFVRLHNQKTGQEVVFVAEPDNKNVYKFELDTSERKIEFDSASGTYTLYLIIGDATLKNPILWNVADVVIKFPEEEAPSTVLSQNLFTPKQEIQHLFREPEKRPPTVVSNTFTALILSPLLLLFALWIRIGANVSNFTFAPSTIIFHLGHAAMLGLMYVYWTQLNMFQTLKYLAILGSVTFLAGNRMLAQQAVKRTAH
UniProt Q92766: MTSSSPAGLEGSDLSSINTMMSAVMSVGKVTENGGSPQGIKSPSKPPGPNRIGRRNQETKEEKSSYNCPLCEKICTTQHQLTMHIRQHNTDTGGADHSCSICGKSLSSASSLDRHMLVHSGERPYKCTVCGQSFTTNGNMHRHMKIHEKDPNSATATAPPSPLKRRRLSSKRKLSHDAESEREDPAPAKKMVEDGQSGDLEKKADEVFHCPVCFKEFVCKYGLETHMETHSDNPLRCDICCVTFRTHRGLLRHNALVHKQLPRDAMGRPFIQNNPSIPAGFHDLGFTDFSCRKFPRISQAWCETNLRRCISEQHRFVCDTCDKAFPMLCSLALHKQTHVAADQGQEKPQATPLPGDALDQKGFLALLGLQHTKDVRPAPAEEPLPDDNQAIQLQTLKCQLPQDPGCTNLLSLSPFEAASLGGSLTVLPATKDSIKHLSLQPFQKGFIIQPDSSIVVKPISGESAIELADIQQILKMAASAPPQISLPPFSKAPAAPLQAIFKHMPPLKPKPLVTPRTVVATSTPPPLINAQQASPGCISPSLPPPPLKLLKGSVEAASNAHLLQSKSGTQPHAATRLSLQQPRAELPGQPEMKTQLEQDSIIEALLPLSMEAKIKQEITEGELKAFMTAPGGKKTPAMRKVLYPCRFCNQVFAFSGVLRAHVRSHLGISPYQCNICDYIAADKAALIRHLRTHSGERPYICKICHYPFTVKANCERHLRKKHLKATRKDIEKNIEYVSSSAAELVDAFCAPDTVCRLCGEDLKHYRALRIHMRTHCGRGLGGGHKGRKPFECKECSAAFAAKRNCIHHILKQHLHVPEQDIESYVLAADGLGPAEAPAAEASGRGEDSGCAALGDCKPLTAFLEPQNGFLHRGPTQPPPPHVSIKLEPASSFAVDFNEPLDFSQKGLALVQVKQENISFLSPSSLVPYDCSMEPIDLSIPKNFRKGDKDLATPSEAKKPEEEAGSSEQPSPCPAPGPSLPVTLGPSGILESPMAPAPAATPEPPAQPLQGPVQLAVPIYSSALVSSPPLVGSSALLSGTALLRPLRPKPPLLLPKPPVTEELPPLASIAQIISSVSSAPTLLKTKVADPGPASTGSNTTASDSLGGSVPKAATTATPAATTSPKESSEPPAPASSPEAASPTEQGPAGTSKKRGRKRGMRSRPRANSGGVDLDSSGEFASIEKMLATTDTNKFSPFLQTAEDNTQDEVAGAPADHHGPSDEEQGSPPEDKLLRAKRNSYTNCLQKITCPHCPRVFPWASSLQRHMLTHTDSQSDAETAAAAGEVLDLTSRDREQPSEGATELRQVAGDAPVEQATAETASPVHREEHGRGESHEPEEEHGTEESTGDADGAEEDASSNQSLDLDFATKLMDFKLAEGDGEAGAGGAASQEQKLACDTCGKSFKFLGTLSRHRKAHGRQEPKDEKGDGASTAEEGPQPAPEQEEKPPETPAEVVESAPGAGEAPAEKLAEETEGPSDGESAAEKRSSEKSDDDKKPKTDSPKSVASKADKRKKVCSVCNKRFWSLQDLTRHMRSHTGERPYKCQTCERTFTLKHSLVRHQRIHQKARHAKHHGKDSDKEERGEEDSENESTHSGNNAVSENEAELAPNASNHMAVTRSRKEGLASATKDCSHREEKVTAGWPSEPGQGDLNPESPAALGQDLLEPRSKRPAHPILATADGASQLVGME
UniProt Q9H6T3, whole entry, looked up: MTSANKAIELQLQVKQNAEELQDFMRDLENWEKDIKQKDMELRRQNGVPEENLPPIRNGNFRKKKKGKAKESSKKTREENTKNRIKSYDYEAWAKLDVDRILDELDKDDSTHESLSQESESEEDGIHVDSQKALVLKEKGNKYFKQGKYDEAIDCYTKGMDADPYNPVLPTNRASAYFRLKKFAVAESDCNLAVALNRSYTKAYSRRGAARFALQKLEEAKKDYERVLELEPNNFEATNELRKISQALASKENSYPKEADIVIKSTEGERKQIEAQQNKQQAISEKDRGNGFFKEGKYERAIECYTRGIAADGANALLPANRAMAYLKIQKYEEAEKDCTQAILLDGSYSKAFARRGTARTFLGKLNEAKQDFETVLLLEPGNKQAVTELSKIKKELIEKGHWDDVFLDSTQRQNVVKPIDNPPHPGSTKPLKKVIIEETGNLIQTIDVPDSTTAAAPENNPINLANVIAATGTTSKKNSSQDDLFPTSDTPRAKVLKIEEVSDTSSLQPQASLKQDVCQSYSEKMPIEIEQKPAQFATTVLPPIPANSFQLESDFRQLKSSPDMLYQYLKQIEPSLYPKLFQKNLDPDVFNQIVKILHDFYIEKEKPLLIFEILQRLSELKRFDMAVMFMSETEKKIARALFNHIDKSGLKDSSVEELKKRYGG
UniProt P31350, whole entry, looked up: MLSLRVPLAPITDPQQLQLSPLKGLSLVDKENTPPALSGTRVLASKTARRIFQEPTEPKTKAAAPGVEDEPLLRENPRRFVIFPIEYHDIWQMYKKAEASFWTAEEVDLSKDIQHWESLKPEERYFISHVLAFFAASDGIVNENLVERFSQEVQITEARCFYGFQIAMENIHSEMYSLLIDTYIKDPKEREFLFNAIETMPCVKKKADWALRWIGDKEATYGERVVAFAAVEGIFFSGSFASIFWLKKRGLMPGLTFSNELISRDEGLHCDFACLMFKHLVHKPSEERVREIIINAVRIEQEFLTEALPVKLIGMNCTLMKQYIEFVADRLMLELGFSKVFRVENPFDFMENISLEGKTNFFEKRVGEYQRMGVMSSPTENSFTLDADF
UniProt P10301: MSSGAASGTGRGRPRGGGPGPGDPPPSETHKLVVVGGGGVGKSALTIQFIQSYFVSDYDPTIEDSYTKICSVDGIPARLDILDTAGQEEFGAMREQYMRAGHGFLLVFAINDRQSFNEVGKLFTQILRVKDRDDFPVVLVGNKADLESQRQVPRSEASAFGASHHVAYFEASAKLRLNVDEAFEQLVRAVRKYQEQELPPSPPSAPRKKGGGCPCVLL

Legend:
Test in all cases: log2 fold change, soluble protein after heating vs DMSO (PISA); higher = thermal stabilisation; K562 cells, 10 uM, 30 min; active = over 0.2 and 3.5 SD of the protein, either way, in both replicates (recomputed)
[1] = compound: CS(=O)(=O)c1ccc(-c2cnc(N)c(C(=O)Nc3ccccc3)n2)cc1
Summary of the method: (§1)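 Soluble protein was defined as the supernatant after 21,000xg for 90 min. It came from K562 cells at 2×10^6 cells/mL given 10 μM compound for 30 min, heated in aliquots for 3 min across 48°C-58°C, pooled, and extracted in PBS with 0.5% NP-40 at 4°C, and was quantified by TMTpro 16plex LC-MS/MS with equalised channel sums. Thermal stability against control samples, from duplicates, is reported as log2 fold change.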

crizotinib = compound: C[C@@H](Oc1cc(-c2cnn(C3CCNCC3)c2)cnc1N)c1c(Cl)ccc(F)c1Cl [crizotinib]
Summary of the method: as §1

[2] = compound: C[C@@H]1COCCN1C2=NC(=NC(=C2)C3(CC3)S(=O)(=O)C)C4=C5C=CNC5=CC=C4
Summary of the method: as §1

[3] = compound: C[C@H](C1=CC=C(C=C1)C(=O)NC2=C3C=CNC3=NC=C2)N
Summary of the method: as §1

duvelisib = compound: C[C@H](Nc1ncnc2nc[nH]c12)c1cc2cccc(Cl)c2c(=O)n1-c1ccccc1 [duvelisib]
Summary of the method: as §1

gandotinib = compound: Cc1cc(Nc2cc(CN3CCOCC3)c3nc(C)c(Cc4ccc(Cl)cc4F)n3n2)n[nH]1 [gandotinib]
Summary of the method: as §1

tozasertib = compound: Cc1cc(Nc2cc(N3CCN(C)CC3)nc(Sc3ccc(NC(=O)C4CC4)cc3)n2)n[nH]1 [tozasertib]
Summary of the method: as §1

[4] = compound: Cc1cc(SCc2sc(-c3ccc(C(F)(F)F)cc3)nc2C)ccc1OCC(=O)O
Summary of the method: as §1

doramapimod = compound: Cc1ccc(-n2nc(C(C)(C)C)cc2NC(=O)Nc2ccc(OCCN3CCOCC3)c3ccccc23)cc1 [doramapimod]
Summary of the method: as §1

ispinesib = compound: Cc1ccc(C(=O)N(CCCN)[C@@H](c2nc3cc(Cl)ccc3c(=O)n2Cc2ccccc2)C(C)C)cc1 [ispinesib]
Summary of the method: as §1

Measured: log2 fold change

RPL26L1 (UniProt Q9UNX3)
inactive: [1] -0.095 | crizotinib -0.071 | [2] -0.691 | [3] 0.465 | duvelisib -0.178 | gandotinib 0.536 | tozasertib 0.028 | [4] 0.09 | doramapimod 0.184 | ispinesib -0.192

RPL22 (UniProt P35268)
inactive: [1] -0.08 | crizotinib 0.096 | [2] -0.466 | [3] 0.455 | duvelisib -0.167 | gandotinib 0.213 | tozasertib 0.028 | [4] -0.008 | doramapimod 0.177 | ispinesib -0.243

RPL26 (UniProt P61254)
inactive: [1] -0.462 | crizotinib 0.069 | [2] -0.313 | [3] 0.139 | duvelisib -0.114 | gandotinib 0.342 | tozasertib 0.072 | [4] 0.029 | doramapimod 0.263 | ispinesib -0.427

RPN2 (UniProt P04844)
inactive: [1] -0.002 | crizotinib -0.001 | [2] -0.012 | [3] 0.017 | duvelisib -0.009 | gandotinib -0.008 | tozasertib 0.023 | [4] 0.005 | doramapimod 0.022 | ispinesib 0

RREB1 isoform 2 (UniProt Q92766)
inactive: [1] 0.048 | crizotinib -0.321 | [2] 0.014 | [3] 0.091 | duvelisib 0.082 | gandotinib -0.209 | tozasertib 0.176 | [4] -0.052 | doramapimod 0.171 | ispinesib -0.08

RPL29 (UniProt P47914)
inactive: [1] -0.095 | crizotinib -0.057 | [2] -1.08 | [3] 0.403 | duvelisib -0.346 | gandotinib 0.409 | tozasertib 0.056 | [4] 0.05 | doramapimod 0.268 | ispinesib -0.078

RPL9 (UniProt P32969)
inactive: [1] -0.102 | crizotinib -0.004 | [2] -0.942 | [3] 0.561 | duvelisib -0.315 | gandotinib 0.283 | tozasertib 0.039 | [4] 0.059 | doramapimod 0.225 | ispinesib -0.224

RPL24 (UniProt P83731)
inactive: [1] -0.047 | crizotinib -0.001 | [2] -0.76 | [3] 0.376 | duvelisib -0.234 | gandotinib 0.275 | tozasertib 0.051 | [4] 0.037 | doramapimod 0.168 | ispinesib -0.218

RPL15 (UniProt P61313)
inactive: [1] -0.111 | crizotinib 0.091 | [2] -1.3 | [3] 0.698 | duvelisib -0.348 | gandotinib 0.479 | tozasertib 0.069 | [4] 0.055 | doramapimod 0.382 | ispinesib -0.204

RPS26 (UniProt P62854)
inactive: [1] -0.062 | crizotinib -0.028 | [2] -0.697 | [3] 0.402 | duvelisib -0.354 | gandotinib 0.258 | tozasertib -0.051 | [4] -0.048 | doramapimod 0.227 | ispinesib -0.119

RPL23 (UniProt P62829)
inactive: [1] -0.043 | crizotinib 0.065 | [2] -0.486 | [3] 0.321 | duvelisib -0.176 | gandotinib 0.215 | tozasertib 0.055 | [4] -0.018 | doramapimod 0.203 | ispinesib -0.137

RPS23 (UniProt P62266)
inactive: [1] -0.052 | crizotinib 0.023 | [2] -0.684 | [3] 0.471 | duvelisib -0.264 | gandotinib 0.344 | tozasertib 0.033 | [4] 0.023 | doramapimod 0.218 | ispinesib -0.156

RPL27 (UniProt P61353)
inactive: [1] -0.221 | crizotinib 0.062 | [2] -1.01 | [3] 0.416 | duvelisib -0.366 | gandotinib 0.428 | tozasertib -0.001 | [4] -0.012 | doramapimod 0.306 | ispinesib -0.111

2 records picked at random from the list so far, as already listed:
RPL15 (UniProt P61313)
inactive: [1] -0.111 | crizotinib 0.091 | [2] -1.3 | [3] 0.698 | duvelisib -0.348 | gandotinib 0.479 | tozasertib 0.069 | [4] 0.055 | doramapimod 0.382 | ispinesib -0.204

RPS26 (UniProt P62854)
inactive: [1] -0.062 | crizotinib -0.028 | [2] -0.697 | [3] 0.402 | duvelisib -0.354 | gandotinib 0.258 | tozasertib -0.051 | [4] -0.048 | doramapimod 0.227 | ispinesib -0.119

Additional entries

RPS6 (UniProt P62753)
inactive: [1] -0.031 | crizotinib 0.04 | [2] -0.59 | [3] 0.504 | duvelisib -0.348 | gandotinib 0.276 | tozasertib 0.129 | [4] 0.076 | doramapimod 0.31 | ispinesib -0.129

RPL36A (UniProt P83881)
inactive: [1] -0.132 | crizotinib 0.044 | [2] -0.667 | [3] 0.564 | duvelisib -0.284 | gandotinib 0.358 | tozasertib 0.014 | [4] -0.082 | doramapimod 0.245 | ispinesib -0.284

RPAP3 (UniProt Q9H6T3)
inactive: [1] 0.073 | crizotinib -0.066 | [2] -0.04 | [3] -0.015 | duvelisib 0.002 | gandotinib -0.036 | tozasertib 0.021 | [4] 0.062 | doramapimod -0.038 | ispinesib -0.054

RPSA (UniProt P08865)
inactive: [1] 0.023 | crizotinib 0.076 | [2] -0.083 | [3] 0.097 | duvelisib -0.023 | gandotinib 0.043 | tozasertib -0.021 | [4] -0.032 | doramapimod 0.016 | ispinesib -0.045

RPL39P5 (UniProt Q59GN2)
inactive: [1] 0.042 | crizotinib -0.003 | [2] -0.648 | [3] 0.345 | duvelisib -0.321 | gandotinib 0.295 | tozasertib 0.044 | [4] -0.076 | doramapimod 0.186 | ispinesib -0.127

RPS7 (UniProt P62081)
inactive: [1] -0.114 | crizotinib 0.067 | [2] -0.542 | [3] 0.247 | duvelisib -0.133 | gandotinib 0.13 | tozasertib 0.029 | [4] 0.029 | doramapimod 0.215 | ispinesib -0.149

RPL35 (UniProt P42766)
inactive: [1] -0.115 | crizotinib 0.034 | [2] -0.777 | [3] 0.317 | duvelisib -0.226 | gandotinib 0.409 | tozasertib 0.095 | [4] 0.049 | doramapimod 0.242 | ispinesib -0.229

RPL7 (UniProt P18124)
inactive: [1] -0.043 | crizotinib 0.07 | [2] -1.12 | [3] 0.644 | duvelisib -0.356 | gandotinib 0.484 | tozasertib 0.03 | [4] 0.046 | doramapimod 0.391 | ispinesib -0.292

RPL18A (UniProt Q02543)
inactive: [1] -0.021 | crizotinib 0.039 | [2] -1.16 | [3] 0.686 | duvelisib -0.374 | gandotinib 0.49 | tozasertib 0.09 | [4] 0.031 | doramapimod 0.424 | ispinesib -0.323

RRM2 isoform 2 (UniProt P31350)
inactive: [1] 0.022 | crizotinib 0.02 | [2] 0.005 | [3] -0.096 | duvelisib -0.02 | gandotinib -0.02 | tozasertib -0.028 | [4] 0.005 | doramapimod -0.022 | ispinesib 0.101

RPL13 (UniProt P26373)
inactive: [1] -0.003 | crizotinib 0.024 | [2] -1.05 | [3] 0.716 | duvelisib -0.326 | gandotinib 0.599 | tozasertib 0.047 | [4] 0.017 | doramapimod 0.345 | ispinesib -0.349

RPL23A (UniProt P62750)
inactive: [1] -0.102 | crizotinib 0.015 | [2] -0.657 | [3] 0.338 | duvelisib -0.236 | gandotinib 0.304 | tozasertib 0.013 | [4] 0.013 | doramapimod 0.189 | ispinesib -0.143

RRAS (UniProt P10301)
inactive: [1] 0.024 | crizotinib 0.107 | [2] 0.012 | [3] -0.072 | duvelisib 0.034 | gandotinib 0.004 | tozasertib -0.006 | [4] -0.012 | doramapimod -0.051 | ispinesib 0.006

RPS11 (UniProt P62280)
inactive: [1] -0.08 | crizotinib 0.068 | [2] -0.69 | [3] 0.386 | duvelisib -0.269 | gandotinib 0.319 | tozasertib 0.006 | [4] 0.05 | doramapimod 0.297 | ispinesib -0.186

RPL36AL (UniProt Q969Q0)
inactive: [1] -0.025 | crizotinib -0.191 | [2] -0.41 | [3] 0.298 | duvelisib -0.259 | gandotinib 0.39 | tozasertib 0.048 | [4] 0.032 | doramapimod 0.042 | ispinesib -0.054

RPL19 (UniProt P84098)
inactive: [1] -0.025 | crizotinib 0.089 | [2] -0.72 | [3] 0.435 | duvelisib -0.284 | gandotinib 0.372 | tozasertib 0.067 | [4] -0.041 | doramapimod 0.267 | ispinesib -0.23

RPL28 (UniProt P46779)
inactive: [1] -0.101 | crizotinib 0.045 | [2] -1.24 | [3] 0.597 | duvelisib -0.317 | gandotinib 0.449 | tozasertib 0.053 | [4] 0.05 | doramapimod 0.361 | ispinesib -0.323
